Laboratory results from patent publication US8575376B2, “Steroide anionic compounds, method of their production, usage and pharmaceutical preparation involving them” (Ustav Organicke Chemie A Biochemie Akademie Ved Ceske …, priority 2009, dated 2013).

Tested on: rats
Experiment: AAPA task after MK-801 (animal model of schizophrenia)
Assay type: in vivo, rat
Conditions: MK-801 0.1 mg/kg alone
Method: The effect of compound from example 9 application on changes in behavior and locomotor activity in animal model of schizophrenia was monitored. Schizophrenia-like behavior in rats was induced by dizocilpine (MK-801) administration. […] was administered in doses of 0.001 mg/kg, 0.01 mg/kg, 0.1 mg/kg and 10 mg/kg. Spatial orientation and cognitive function of rats were assessed in active allothetic place avoidance task (AAPA).
Schizophrenia-like behaviour in rats was induced by administration of dizocilpine (MK-801). Spatial navigation and cognitive functions of rats were assessed in active alothetic place avoidance task (AAPA). In addition, this task allows simultaneous assessment of potential differences in locomotory activity. The AAPA task requires rats moving on a continuously rotating (1 rpm) smooth metallic circular arena to avoid an unmarked place defined in the coordinates of the experimental room. The avoidance is reinforced by a mild electric foot-shock administered automatically upon entering the to-be avoided place.
The AAPA task is highly dependent on hippocampal function, since even a unilateral inactivation of thstructure hippocampus impairs this behaviour. Animals have to actively and repeatedly move away from the to-be-avoided place otherwise they are brought there by the arena rotation. Each AAPA session lasts 20 min and 4 sessions were conducted over 4 consecutive days.
Rats received 0.1 mg/kg MK-801 alone or co-administered with the compound from example 9 (dissolved in β-cyclodextrine) in doses of 0.001 mg/kg, 0.01 mg/kg, 0.1 mg/kg, and 10 mg/kg. Control animals received saline. […] It is for a common animal model of schizophrenia-like behaviour.
The results are shown in FIGS. 21-23, where means and standard errors of the mean (S.E.M.) are represented for individual sessions. Statistic analysis was for better clarity stated always for the last session, when an asymptotic level of performance in control animals was reached.

With C[C@]12N[C@H](Cc3ccccc31)c1ccccc12 [dizocilpine] the “locomotion activity in AAPA (total distance)” value was “did not lead to enhanced locomotion”, the “maximum time of avoidance in AAPA” value was “produced a significant deficit in this parameter” and the “number of errors (entrances) in AAPA” value was “resulted in marked impairment of this parameter”.
